Read-outs that look alike come from different tables or passages of the source. These are yes or no findings as the source states them, for the method shown. In cells and extracts the contact can be indirect. Some binding calls cover weakened binding; strength is not graded here.
B1: Scj1p (protein, UniProt P25303 22-377)
chain: QDYYAILEIDKDATEKEIKSAYRQLSKKYHPDKNAGSEEAHQKFIEVGEAYDVLSDPEKKKIYDQFGADAVKNGGGGGGPGGPGAGGFHDPFDIFERMFQGGHGGPGGGFGQRQRQRGPMIKVQEKLSLKQFYSGSSIEFTLNLNDECDACHGSGSADGKLAQCPDCQGRGVIIQVLRMGIMTQQIQQMCGRCGGTGQIIKNECKTCHGKKVTKKNKFFHVDVPPGAPRNYMDTRVGEAEKGPDFDAGDLVIEFKEKDTENMGYRRRGDNLYRTEVLSAAEALYGGWQRTIEFLDENKPVKLSRPAHVVVSNGEVEVVKGFGMPKGSKGYGDLYIDYVVVMPKTFKSGQNMLKDEL
B2: Yae1p (protein, UniProt P47118 1-141)
chain: MSNTWDDVWASDSDVETERSPDLVKLRENHSKRGYLDGIVSSKEEKLQEGFNDGFPTGAKLGKQVGIIMGILLGLRTRFGDEDEDLSKAYIDAQKELRINKVLSKSIFDPNFDLQEKHPLITKWTDIANTYCEKYHVPSIQ

By UniProt entry, the sequences of proteins in these tests, tags left out. Residues count along the entry.
UniProt Q08199, residues 20-421: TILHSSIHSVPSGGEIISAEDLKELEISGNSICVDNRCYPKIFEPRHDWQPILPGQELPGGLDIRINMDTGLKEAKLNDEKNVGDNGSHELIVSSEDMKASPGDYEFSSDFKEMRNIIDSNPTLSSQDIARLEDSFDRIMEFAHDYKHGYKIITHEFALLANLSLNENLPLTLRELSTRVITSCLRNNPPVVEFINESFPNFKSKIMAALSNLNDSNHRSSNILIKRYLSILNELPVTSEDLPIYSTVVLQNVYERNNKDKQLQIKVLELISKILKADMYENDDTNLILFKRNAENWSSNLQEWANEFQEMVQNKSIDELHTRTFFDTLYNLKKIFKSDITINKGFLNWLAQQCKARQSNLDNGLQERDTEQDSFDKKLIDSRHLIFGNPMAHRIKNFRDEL
UniProt Q03195: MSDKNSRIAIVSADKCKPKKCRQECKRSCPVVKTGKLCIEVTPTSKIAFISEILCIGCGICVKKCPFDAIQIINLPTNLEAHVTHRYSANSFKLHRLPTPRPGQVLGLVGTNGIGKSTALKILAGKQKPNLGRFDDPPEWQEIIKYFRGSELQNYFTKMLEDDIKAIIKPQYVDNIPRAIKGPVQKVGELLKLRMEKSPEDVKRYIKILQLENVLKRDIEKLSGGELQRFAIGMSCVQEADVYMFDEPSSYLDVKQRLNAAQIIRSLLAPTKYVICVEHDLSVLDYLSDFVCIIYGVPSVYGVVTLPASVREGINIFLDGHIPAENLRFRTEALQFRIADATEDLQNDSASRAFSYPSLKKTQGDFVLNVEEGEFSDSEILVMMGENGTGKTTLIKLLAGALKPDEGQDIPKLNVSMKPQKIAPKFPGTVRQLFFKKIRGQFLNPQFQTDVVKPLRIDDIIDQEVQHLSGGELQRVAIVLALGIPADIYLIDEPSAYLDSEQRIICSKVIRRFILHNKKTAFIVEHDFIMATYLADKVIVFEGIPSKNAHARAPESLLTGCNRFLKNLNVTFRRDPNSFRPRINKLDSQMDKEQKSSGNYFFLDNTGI

Tests used:
Assay in all cases: split reporter
Sil1p (S. cerevisiae) = Sil1p (S. cerevisiae) (UniProt Q08199)
Rli1p (yeast) [1] = target: Rli1p (yeast) (UniProt Q03195)
Rli1p (yeast) [2] = target: Rli1p (yeast) (UniProt Q03195); remark: listed apart in the source

| Binder | binding (Sil1p (S. cerevisiae)) | binding (Rli1p (yeast) [1]) | binding (Rli1p (yeast) [2]) |
| --- | --- | --- | --- |
| B1 | binds |  |  |
| B2 |  | no binding | no binding |
